# PubChem BioAssay AID1224826 – NIAID – 2016
# Aim: 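Genes that change LPS-induced Tnf promoter activity in mouse macrophages when knocked down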 (primary screen)
# System: RAW264.7 G9 macrophages from mouse bearing reporters for p65 (GFP) and the Tnf promoter (mCherry)
# Knock-down reagent: siRNA pool against mouse genes, 100 nM
# Duration: 16 h of LPS stimulation, after 2 days of siRNA transfection
# Challenge: bacterial lipopolysaccharide (Salmonella minnesota R595), 10 ng/ml
# Read-out: 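Imaged Tnf reporter mCherry in nuclei, minus background, normalised per plate to the median and expressed as robust z-scores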
# Scale: Tnf reporter robust z-score: higher = stronger Tnf promoter reporter signal after LPS; Tnf reporter intensity: higher = stronger Tnf promoter reporter signal
# Active means: 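a well counts as active at a score of -1.3 or below (Tlr4 knock-down control median) or above 3 (raised signal); controls and wells holding fewer than 50 cells are excluded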
# Meaning of the calls: active = Tnf reporter clearly lowered or raised; inactive = no clear change in Tnf reporter
# Shown is an unselected part of about 17,000 reagents. In the full data, about 1,110 (6.6%) are marked active. 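Active means lowered or raised reporter signal; replicate intensities are raw and not normalised per plate.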 Unmarked entries are inactive.
gene,PubChem SID,Tnf reporter robust z-score,fewer than 50 cells in well,"Tnf reporter intensity, replicate 1","Tnf reporter intensity, replicate 2"
Emx1 (empty spiracles homeobox 1),SID315466497,0.11,enough cells in well,206,273
Smcr8,SID315479366,,fewer than 50 cells per well; well left out of calls,67.9,40.5
Tmigd1 (transmembrane and immunoglobulin domain containing 1),SID315472533,2.55,enough cells in well,282,109
"Ugt2b34 (UDP glucuronosyltransferase 2 family, polypeptide B34)",SID315476245,-0.99,enough cells in well,93.1,113
"Cyb561a3 (cytochrome b561 family, member A3)",SID315478450,0.29,enough cells in well,126,180
Or1o1 (olfactory receptor family 1 subfamily O member 1),SID315480179,-0.82,enough cells in well,130,114
Nat14 (N-acetyltransferase 14),SID315480891,,fewer than 50 cells per well; well left out of calls,122,86.9
"Fabp9 (fatty acid binding protein 9, testis)",SID315469735,0.46,enough cells in well,208,210
Gkn1 (gastrokine 1),SID315472339,-0.53,enough cells in well,193,119
"Cyp2d26 (cytochrome P450, family 2, subfamily d, polypeptide 26)",SID315475276,-0.38,enough cells in well,154,160

3 entries from above, set out differently:
gene	PubChem SID	Tnf reporter robust z-score	fewer than 50 cells in well	Tnf reporter intensity, replicate 1	Tnf reporter intensity, replicate 2
Smcr8	SID315479366		fewer than 50 cells per well; well left out of calls	67.9	40.5
Tmigd1 (transmembrane and immunoglobulin domain containing 1)	SID315472533	2.55	enough cells in well	282	109
Ugt2b34 (UDP glucuronosyltransferase 2 family, polypeptide B34)	SID315476245	-0.99	enough cells in well	93.1	113

The list goes on.
gene,PubChem SID,Tnf reporter robust z-score,fewer than 50 cells in well,"Tnf reporter intensity, replicate 1","Tnf reporter intensity, replicate 2"
Brd8dc (BRD8 domain containing),SID315480949,,fewer than 50 cells per well; well left out of calls,260,68.5
Tceal6 (transcription elongation factor A (SII)-like 6),SID315472214,1.34,enough cells in well,318,129
Cmtm2a (CKLF-like MARVEL transmembrane domain containing 2A),SID315474716,1.97,enough cells in well,250,235
Erlin2 (ER lipid raft associated 2),SID315479757,-0.17,enough cells in well,196,193
Tmem176b (transmembrane protein 176B),SID315472163,-0.59,enough cells in well,173,69.4
Or12e9 (olfactory receptor family 12 subfamily E member 9),SID315480034,-0.78,enough cells in well,183,74.7
Dpp4 (dipeptidylpeptidase 4),SID315466374,0.86,enough cells in well,274,290
Slc25a12,SID315475632,-0.1,enough cells in well,92,104
Cenpe (centromere protein E),SID315478745,-0.21,enough cells in well,246,177
Elac1 (elaC ribonuclease Z 1),SID315477018,-0.62,enough cells in well,182,68.5
Cwc22 (CWC22 spliceosome-associated protein),SID315475716,-0.6,enough cells in well,162,168
Snrpn (small nuclear ribonucleoprotein N),SID315469368,-0.56,enough cells in well,206,193
Prph (peripherin),SID315468719,-0.62,enough cells in well,75.2,97.4
Rcor3 (REST corepressor 3),SID315477882,-0.18,enough cells in well,114,126
